## Library screening results

From ChEMBL document CHEMBL3988442, “University of Dundee, Small-Polar-MMV Screening Library” (2021).

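Whole-cell assay for inhibitors of Mycobacterium tuberculosis growth, labelled Cornell in the record; the read-out is not stated. The concentration is filed as 10 mM, unlikely as a test dose, so the dose is not known. The record gives no direction; compounds strong in two other growth screens of this library score well above the rest, so higher reads as stronger inhibition. Of about 53,000 compounds tested this way, about 900 (1.7%) reached 50% or more in at least one test.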

Results are given as percent effect.
The record does not define 0% and 100%; most values in the screen are far below 50% and negative numbers occur (in some assays of this library far below -100).
This is an unselected part of the compounds tested.

* CC(C)c1n[nH]c(C(=O)Nc2ccncc2)c1Br : 4.237%
* CCC(CO)N(Cc1ccsc1)Cc1ccccc1C(=O)O (stereo not drawn) : -16.23%
* CCc1nccn1C1CCCN(C(=O)CCc2nccs2)C1 (stereo not drawn) : 9.929%
* Cn1cnc2c1CCN(Cc1nc(COc3ccc(F)cc3)no1)C2 : 12.81%
* [H][C@@]12CCN(C(C)=O)C[C@@]1([H])[C@H](C(=O)Nc1cccnc1C)CCO2 : -16.14%
* c1cc(CNCC2CNc3ccnn3C2)cc(OC2CCCC2)n1 (stereo not drawn) : -36.71%
* Cc1ncoc1C(=O)N1CCc2[nH]nc(-c3ccc4c(c3)OCO4)c2C1 : -11.92%
* Cc1ncc(CN(C)C(=O)Nc2cccc(N3CCNC3=O)c2)s1 : 15.48%
* Cc1cc(C2CCCN(CCc3ccc4c(c3)CCO4)C2)n[nH]1 (stereo not drawn) : -4.955%
* Cc1n[nH]c(C2CN(C(=O)c3ccc4c(c3)CCCC4)CCO2)n1 (stereo not drawn) : 9.56%
* Cc1cccnc1N1CCC(c2nccn2Cc2cscn2)CC1 : 9.487%
* CN(C)CCOCC1CN(C(=O)c2cscn2)Cc2ccnn2C1 (stereo not drawn) : -10.04%
* CN(C)C(=O)COCc1cncc2c1CCN(Cc1cnn(C)c1)C2.O=C(O)C(F)(F)F.O=C(O)C(F)(F)F : 8.615%
* O=C(O)C(F)(F)F.O=C(O)C(F)(F)F.O=C(O)C(F)(F)F.[H][C@@]12CN(Cc3ccc(OC)cc3)C[C@]1([H])OCCN2CCN(C)C : 19.81%
* O=C(Cc1cccc(Cl)c1)Nc1cnccc1SCCCO : -50.27%
* CN(C)c1ncc(-c2ccncc2)c(CCNC(=O)C2CC2)n1 : 23.54%
* CCc1cc(N(C)CCC(O)c2ccccc2)n2nccc2n1 (stereo not drawn) : -53.72%
* CC(C)c1nc(CN2CCCN(Cc3nccn3C)CC2)no1 : -30.49%
* Cc1ccc(C(=O)N2CCC(n3cc(CN)nn3)CC2)cc1F : 7.189%
* CC(C)CC(=O)N1CC(=O)c2sc(Nc3ccc(C#N)cc3)nc2C1 : -3.135%
* CCOC(=O)CC(C)Nc1nc(C(C)(C)C)nc2c1cnn2C (stereo not drawn) : 12.68%
* O=C(O)C(F)(F)F.O=C(O)C(F)(F)F.[H][C@@]12CCCO[C@]1([H])[C@H](N(C)Cc1cccnc1)CN2C(=O)NC1CC1 : 30.29%
* CC(C)c1nccn1CCC(=O)N1CCCCC1c1ccn[nH]1 (stereo not drawn) : -1.414%
* Cc1cc(C)c(C#N)c(N2CCC3(CCCN(CCO)C3=O)C2)n1 (stereo not drawn) : -55.83%
* CC(C)(C)NC(=O)CN1CCCN(c2ccc(C#N)cn2)CC1 : 8.91%
* COCC1CC2(CCN(Cc3ccccn3)CC2)CN1c1ncccn1.O=C(O)C(F)(F)F.O=C(O)C(F)(F)F.O=C(O)C(F)(F)F (stereo not drawn) : -5.781%
* CC[C@H]1COCCN1C(=O)c1cnc(N2CCN(C)CC2)nc1C : 33.51%
* Fc1ccc(CN2CCC3(CC2)CCN(c2ncccn2)CC3)cc1.O=C(O)C(F)(F)F.O=C(O)C(F)(F)F : 16.75%
* N#CC1(NC(=O)c2nccc3ccccc23)CCC1 : 6.589%
* CCOc1cc([C@H]2N[C@@H](c3nc(C)cs3)Cc3ccsc32)ccc1OC : 28.31%
* Cc1noc(C)c1CCC(=O)N1CCCCC1CNS(C)(=O)=O (stereo not drawn) : -5.901%
* CN(C)CCOCC1CN(CC2CCOCC2)Cc2nnn(C)c21.O=C(O)C(F)(F)F.O=C(O)C(F)(F)F (stereo not drawn) : 15.02%
* CC(=O)N1CCC(N2CC(Cc3nccc4ccn(C)c34)C2)CC1 : -14.12%
* [H][C@@]12CCN(S(=O)(=O)c3ccccc3)[C@]1([H])CC[C@@H](c1nc(C)no1)O2 : 16.62%
* c1cncc(-c2nnc(C3(c4ccc5c(c4)OCO5)CCOCC3)o2)c1 : 16.68%
* CC(C)(CN1CCC2(CCOCC2)CC1)N1CCOCC1 : -13.56%
* O=C(c1ccco1)N1CCc2onc(Cn3cccn3)c2C1 : -8.594%
* c1ccc(C2CCCN2C2CSCCSC2)nc1 (stereo not drawn) : 6.669%
* CCc1ncc2c(n1)CN(Cc1nnc(C)o1)CC2 : -7.232%
* CCc1nnc(CN2CCN(c3cccc(OC)c3)C(=O)C2)o1 : 5.845%
* CC(C)CN1CC(c2nc(-c3cccc(F)c3)c[nH]2)CC1=O (stereo not drawn) : 14.75%
* Cc1cnn(CCC(=O)N2CCN(c3ccc(C#N)cn3)CC2)c1 : -34.49%
* CN(C)S(=O)(=O)N1CCN(c2nccc(C(F)(F)F)n2)CC1 : -24.25%
* CC(C)CN1CCCn2nc(CNC(=O)Cc3cccc(O)c3)cc2C1 : 7.152%
* CSc1cc2c(cc1NC(=O)NCC(C)(C)C(N)=O)OCCO2 : 10%
* CN(C)S(=O)(=O)N1CC(c2ccnc(Nc3ccccn3)n2)C1 : 25.46%
* CC(=O)NCC(=O)N1CCN(Cc2cccnc2)c2ncccc2C1 : 25.84%
* O=C(CN(CC(O)c1ccc(F)cc1)C1CC1)NCc1cccs1 (stereo not drawn) : 37.28%
* Cc1cccc(-c2nnn3c2COC(CNS(=O)(=O)C2CC2)C3)c1 (stereo not drawn) : -9.858%
* CCc1cc(NC(C)(C)C)nc(N2CCOCC2)n1 : 12.34%
* CN(C)c1ccnc(-c2ccnc3c2ccn3C)n1 : -13.1%
* COc1ccc(OC)c(C2CCN(c3ccc4cc[nH]c4n3)C2)c1 (stereo not drawn) : 18.95%
* COCc1noc(-c2ccc(N(C)Cc3cn(C)nc3C)nc2)n1 : 19.83%
* CC(C)CNC(=O)CN(CC(=O)NCC(C)C)S(C)(=O)=O : 7.827%
* CCC(=O)N(CC(N)=O)Cc1cccc(Oc2ccccc2)c1 : -8.532%
* CCN1CC(COc2ccc(OC)cc2)Oc2ccncc2S1(=O)=O (stereo not drawn) : 7.007%
* Cc1cnc(N2C(=O)CSC2c2ccc(N(C)C)cc2)s1 (stereo not drawn) : 31.19%
* CN(C)CC(=O)N1CC2(CCN(Cc3ccccc3)C2)C1 : -28.84%
* Cc1cnn(C2CN(Cc3nc(-c4ccsc4)no3)C2)c1 : 18.79%
* O=C1OCCN1Cc1cccc(F)c1C(F)(F)F : -13.89%

4 of the entries, repeated:

compound	Percent Effect
CC(C)CN1CCCn2nc(CNC(=O)Cc3cccc(O)c3)cc2C1	7.152%
CCc1nnc(CN2CCN(c3cccc(OC)c3)C(=O)C2)o1	5.845%
CCc1nccn1C1CCCN(C(=O)CCc2nccs2)C1 (stereo not drawn)	9.929%
Cc1ncoc1C(=O)N1CCc2[nH]nc(-c3ccc4c(c3)OCO4)c2C1	-11.92%